Laboratory results: PubChem BioAssay AID1259405 (NCATS, 2018)

Test: 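Mouse-designed siRNAs used to find CHO productivity engineering targets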 (primary screen)
System: Chinese hamster CHO-K1 ovary cells with stable secreted eGFP expression
Reagents: single siRNA against mouse genes, 0.8 pmol siRNA per well (2 µl of 400 nM stock)
Time to read-out: 3 days
Detection: 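Per-well intracellular GFP measured by laser scanning cytometry, plus viability from ATP luminescence, each relative to plate median of non-targeting control wells, in %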
Direction: GFP, % of control: higher = more GFP per well, higher productivity; viability (ATP), % of control: higher = more viable cells (more ATP)
Call rule: 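Called active when intracellular GFP, relative to negative control, is at or above 120%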
This is an unselected part of about 50,000 reagents tested. In the full data, about 4,000 (8%) are marked active. 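Mouse siRNA library applied to hamster cells; one well for each siRNA.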 No sequences are given here.

The first 5 records, ahead of the listing:
Dsg2 (GeneID 13511) [SID363573387] — GFP, % of control: 80; viability (ATP), % of control: 87.3; Call: inactive
Dsg2 (GeneID 13511) [SID363588626] — GFP, % of control: 108; viability (ATP), % of control: 86; Call: inactive
Ptpmt1 (GeneID 66461) [SID363575226] — GFP, % of control: 111; viability (ATP), % of control: 84.8; Call: inactive
Ptpmt1 (GeneID 66461) [SID363580858] — GFP, % of control: 105; viability (ATP), % of control: 83.4; Call: inactive
Ptpmt1 (GeneID 66461) [SID363582970] — GFP, % of control: 73.7; viability (ATP), % of control: 70.1; Call: inactive

Main list, repeating the preview:
Dsg2 (GeneID 13511) [SID363573387] — GFP, % of control: 80; viability (ATP), % of control: 87.3; Call: inactive
Dsg2 (GeneID 13511) [SID363588626] — GFP, % of control: 108; viability (ATP), % of control: 86; Call: inactive
Ptpmt1 (GeneID 66461) [SID363575226] — GFP, % of control: 111; viability (ATP), % of control: 84.8; Call: inactive
Ptpmt1 (GeneID 66461) [SID363580858] — GFP, % of control: 105; viability (ATP), % of control: 83.4; Call: inactive
Ptpmt1 (GeneID 66461) [SID363582970] — GFP, % of control: 73.7; viability (ATP), % of control: 70.1; Call: inactive
Dip2c (GeneID 208440) [SID363542795] — GFP, % of control: 50.3; viability (ATP), % of control: 59.3; Call: inactive
Dip2c (GeneID 208440) [SID363546312] — GFP, % of control: 41.2; viability (ATP), % of control: 46.5; Call: inactive
Dip2c (GeneID 208440) [SID363548068] — GFP, % of control: 72.4; viability (ATP), % of control: 59.1; Call: inactive
4932414N04Rik (GeneID 75721) [SID363542377] — GFP, % of control: 86.5; viability (ATP), % of control: 65.3; Call: inactive
4932414N04Rik (GeneID 75721) [SID363551868] — GFP, % of control: 92.2; viability (ATP), % of control: 53.7; Call: inactive
4932414N04Rik (GeneID 75721) [SID363559473] — GFP, % of control: 89.6; viability (ATP), % of control: 83.5; Call: inactive
Or7g21 (GeneID 258557) [SID363554534] — GFP, % of control: 132; viability (ATP), % of control: 90.3; Call: active
Or7g21 (GeneID 258557) [SID363567981] — GFP, % of control: 110; viability (ATP), % of control: 59.7; Call: inactive
Or7g21 (GeneID 258557) [SID363586040] — GFP, % of control: 61.1; viability (ATP), % of control: 78; Call: inactive
Or13a18 (GeneID 18345) [SID363544431] — GFP, % of control: 87.5; viability (ATP), % of control: 68; Call: inactive
Or13a18 (GeneID 18345) [SID363550759] — GFP, % of control: 71.3; viability (ATP), % of control: 67.2; Call: inactive
Or13a18 (GeneID 18345) [SID363557308] — GFP, % of control: 86; viability (ATP), % of control: 89.9; Call: inactive
Copz1 (GeneID 56447) [SID363547550] — GFP, % of control: 104; viability (ATP), % of control: 84.5; Call: inactive
Copz1 (GeneID 56447) [SID363558319] — GFP, % of control: 74.9; viability (ATP), % of control: 76.1; Call: inactive
Copz1 (GeneID 56447) [SID363560077] — GFP, % of control: 56.4; viability (ATP), % of control: 40.6; Call: inactive
Acer3 (GeneID 66190) [SID363569321] — GFP, % of control: 63; viability (ATP), % of control: 58.7; Call: inactive
Acer3 (GeneID 66190) [SID363577065] — GFP, % of control: 82.7; viability (ATP), % of control: 54.5; Call: inactive
Acer3 (GeneID 66190) [SID363578473] — GFP, % of control: 69.3; viability (ATP), % of control: 40.3; Call: inactive
Slc35a2 (GeneID 22232) [SID363547611] — GFP, % of control: 147; viability (ATP), % of control: 72.6; Call: active
Slc35a2 (GeneID 22232) [SID363558380] — GFP, % of control: 39.1; viability (ATP), % of control: 34.3; Call: inactive
Slc35a2 (GeneID 22232) [SID363560138] — GFP, % of control: 83.9; viability (ATP), % of control: 72.8; Call: inactive
Magohb (GeneID 66441) [SID363543548] — GFP, % of control: 112; viability (ATP), % of control: 100; Call: inactive
Magohb (GeneID 66441) [SID363553041] — GFP, % of control: 159; viability (ATP), % of control: 127; Call: active
Magohb (GeneID 66441) [SID363558889] — GFP, % of control: 90.5; viability (ATP), % of control: 103; Call: inactive
Scara3 (GeneID 219151) [SID363545000] — GFP, % of control: 69.1; viability (ATP), % of control: 56.1; Call: inactive
Scara3 (GeneID 219151) [SID363551328] — GFP, % of control: 66.4; viability (ATP), % of control: 97.5; Call: inactive
Scara3 (GeneID 219151) [SID363557877] — GFP, % of control: 49.4; viability (ATP), % of control: 61.8; Call: inactive
Aicda (GeneID 11628) [SID363569834] — GFP, % of control: 108; viability (ATP), % of control: 95.3; Call: inactive
Aicda (GeneID 11628) [SID363576874] — GFP, % of control: 103; viability (ATP), % of control: 80; Call: inactive
Aicda (GeneID 11628) [SID363578282] — GFP, % of control: 110; viability (ATP), % of control: 101; Call: inactive
Igfbp4 (GeneID 16010) [SID363540298] — GFP, % of control: 78; viability (ATP), % of control: 88.3; Call: inactive
Igfbp4 (GeneID 16010) [SID363542050] — GFP, % of control: 54.7; viability (ATP), % of control: 82.3; Call: inactive
Igfbp4 (GeneID 16010) [SID363566966] — GFP, % of control: 80.5; viability (ATP), % of control: 80.7; Call: inactive
Gprin1 (GeneID 26913) [SID363540088] — GFP, % of control: 70.8; viability (ATP), % of control: 72.4; Call: inactive
Gprin1 (GeneID 26913) [SID363561389] — GFP, % of control: 107; viability (ATP), % of control: 73.4; Call: inactive
Gprin1 (GeneID 26913) [SID363564425] — GFP, % of control: 95.1; viability (ATP), % of control: 87.5; Call: inactive
Kifbp (GeneID 72320) [SID363543850] — GFP, % of control: 53.3; viability (ATP), % of control: 77.3; Call: inactive
Kifbp (GeneID 72320) [SID363551586] — GFP, % of control: 66.8; viability (ATP), % of control: 73.2; Call: inactive
Kifbp (GeneID 72320) [SID363559191] — GFP, % of control: 73.9; viability (ATP), % of control: 63.7; Call: inactive
Trim30a (GeneID 20128) [SID363541647] — GFP, % of control: 119; viability (ATP), % of control: 70; Call: inactive
Trim30a (GeneID 20128) [SID363553239] — GFP, % of control: 67.8; viability (ATP), % of control: 67.8; Call: inactive
Trim30a (GeneID 20128) [SID363566563] — GFP, % of control: 48.3; viability (ATP), % of control: 49.3; Call: inactive
Vmn2r42 (GeneID 22310) [SID363545073] — GFP, % of control: 50.7; viability (ATP), % of control: 44.8; Call: inactive
Vmn2r42 (GeneID 22310) [SID363551401] — GFP, % of control: 80.2; viability (ATP), % of control: 81.4; Call: inactive
Vmn2r42 (GeneID 22310) [SID363557950] — GFP, % of control: 87.2; viability (ATP), % of control: 66.3; Call: inactive
Atxn2 (GeneID 20239) [SID363569216] — GFP, % of control: 140; viability (ATP), % of control: 120; Call: active
Atxn2 (GeneID 20239) [SID363583648] — GFP, % of control: 82.1; viability (ATP), % of control: 76.6; Call: inactive
